The chains are these.
B1: humanized antibody hu7B10 (antibody, human IgG1, kappa, V domains shown)
VH: EVQLVQSGAEVKKPGASVKVSCKASGYTFTSYWMHWVRQAPGQGLEWMGLIHPNSDTTKFSENFKTRVTMTIDTSISTAYMELSRLRSDDTAVYYCAKSKIITTIVARHWYFDVWGQGTTVTVSS
VL: DIVLTQTPLSLSVTPGQPASISCKASQSVDYGGDSYMNWYLQKPGQPPQLLIYAASNLESGVPDRFSGSGSGTDFTLKISRVEAEDVGVYYCQHSNENPPTFGGGTKVEIKR
B2: murine monoclonal antibody 7B10 (antibody, V domains shown)
VH: QVQLQQPGTELLKPGASVSLSCKASGYTFTSYWMHWVKQRPGQGLEWIGLIHPNSDTTKFSENFKTRATLTIDKSSSTAYMKLSSLTSEDSAVYYCAKSKIITTIVARHWYFDVWGTGTTVTVSS
VL: DIVLTQSPPSLAVSLGQRATISCKASQSVDYGGDSYMNWYQQKLGQPPKVLIYAASNLESGIPARFSGSGSGTDFTLNIHPVEEEDVATYYCQHSNENPPTFGGGTKLEIK
B3: human-murine chimeric antibody 7B10-C (antibody, V domains shown)
VH: QVQLQQPGTELLKPGASVSLSCKASGYTFTSYWMHWVKQRPGQGLEWIGLIHPNSDTTKFSENFKTRATLTIDKSSSTAYMKLSSLTSEDSAVYYCAKSKIITTIVARHWYFDVWGTGTTVTVSS
VL: DIVLTQSPPSLAVSLGQRATISCKASQSVDYGGDSYMNWYQQKLGQPPKVLIYAASNLESGIPARFSGSGSGTDFTLNIHPVEEEDVATYYCQHSNENPPTFGGGTKLEIK
B4: murine monoclonal antibody 25G7 (antibody, V domains shown)
VH: EVQLVESGGGLVKPGGSLKLSCAASGFTFSDYGMHWVRQAPEKGLEWVAFISSGSSIIYYADIVKGRSTISRDNAKNTLFLQMTSLRSEDTAMYYCTRGNKRGFFDYWGQGTILTVSS
VL: QIVLTQSPALMSASPGEKVTMTCNASSSVSYMYWYQRKPRSSPKPWIYLTSNLASGVPVRFSGSGSGTSYSLTISSMEAEDAATYYCQQWRSNPPMLTFGSGTKLEVK
B5: humanized antibody hu25G7 (antibody, human IgG4 S228P, kappa, V domains shown)
VH: EVQLVESGGGLVQPGGSLRLSCAASGFTFSDYGMHWVRQAPGKGLEWVAFISSGSSIIYYADIVKGRSTISRDNAKNSLYLQMNSLRAEDTAVYYCTRGNKRGFFDYWGQGTLVTVSS
VL: EIVLTQSPATLSLSPGERATLSCNASSSVSYMYWYQQKPGQAPRLLIYLTSNLASGIPARFSGSGSGTDFTLTISSLEPEDFAVYYCQQWRSNPPMLTFGGGTKVEIKR
B6: human-murine chimeric antibody 25G7-C (antibody, V domains shown)
VH: EVQLVESGGGLVKPGGSLKLSCAASGFTFSDYGMHWVRQAPEKGLEWVAFISSGSSIIYYADIVKGRSTISRDNAKNTLFLQMTSLRSEDTAMYYCTRGNKRGFFDYWGQGTILTVSS
VL: QIVLTQSPALMSASPGEKVTMTCNASSSVSYMYWYQRKPRSSPKPWIYLTSNLASGVPVRFSGSGSGTSYSLTISSMEAEDAATYYCQQWRSNPPMLTFGSGTKLEVK

Results are given in words; binding and its absence hold for the method and conditions named.

For the assay, the target named is his-tagged rhesus IL-4R recombinant protein (rhesus-IL-4R-his) (rhesus). In words: ELISA, IL-4R-his coated on the plate. In general terms: An ELISA detects its analyte on a solid surface through an enzyme-linked reagent.
For B1, the binding entry is recorded as “no binding”.
Next, B2: “no binding”.
Under B3 stands “no binding”; under B4, “no binding”.
As for B5, the binding result is “no binding”.
Consider B6, for which the binding entry was “no binding”.

For the origin of these results see patent US20230088052A1.
